Laboratory results taken from patent US20230364172A1, “MODULATION OF SOLUBILITY, PALATABILITY, ABSORPTION, AND BIOAVAILABILITY OF MITRAGYNA SPECIOSA-DERIVED COMPOUNDS FOR ORAL AND BUCCAL DELIVERY” (Syncotrance, LLC, priority 2022, published 2023).

Assay: Taste of antibiotics in water or premix (Example F)
[1] = 500 mg in 100 ml premix (zero sugar, 6% lecithin)

SMILES | taste [1] | taste (500 mg in 100 ml water) | taste (500 mg in 100 ml premix with Chocolate flavor MET 1947 at 0.8%)
CC[C@H]1OC(=O)[C@H](C)[C@@H](O[C@H]2C[C@@](C)(OC)[C@@H](O)[C@H](C)O2)[C@H](C)[C@@H](O[C@@H]2O[C@H](C)C[C@H](N(C)C)[C@H]2O)[C@](C)(O)C[C@@H](C)CN(C)[C@H](C)[C@@H](O)[C@]1(C)O [Azithromycin, Azithromycin dihydrate] | highly palatable | mildly aversive due to strong bitterness | –
O=C(O)c1cn(C2CC2)c2cc(N3CCNCC3)c(F)cc2c1=O [Ciprofloxacin, Ciprofloxacin base] | mildly bitter and mildly aversive | extremely bitter and highly aversive | Acceptable
